Assay results from US12599617B2, “Methods of treating head and neck cancers with hemp extract” (Ecofibre USA Inc., priority 2021, dated 2026).
Some of these results come from one statement about several compounds together.

Test system: cancer organoid
Experiment: Effect of pH of the cannabis extract on cancer organoid viability
Details: pH 4

## C=C(C)[C@@H]1CCC(C)=C[C@H]1c1c(O)cc(CCCCC)cc1O [CBD isolate, cannabidiol]
  % viability of organoids: < 1%
